Laboratory results: patent publication US20120129834A1, “SEROTONIN RECEPTOR ANTAGONISTS FOR USE IN THE TREATMENT OF HUNTINGTON'S DISEASE” (BUCK INSTITUTE FOR RESEARCH ON AGING, priority 2010, published 2012)

System: caspase-3/7
Assay: caspase activation assay, STHdh111Q/111Q serum deprivation model
Format: cell-based
Conditions: dose/response, FIG. 17 lower panel, n=3/dose

caspase-3/7 activation: rescue
SMILES: CN1CCC(=C2c3ccccc3C=Cc3ccccc32)CC1.Cl [Cyproheptadine, 4-(5H-dibenzo[a,d]cyclohepten-5-ylidene)-1-methylpiperidine hydrochloride]
